The test deals with Ubiquitin-protein ligase E3A (human (endogenous in Eca-109 and TE-1)) (UniProt Q05086). In words: affinity purification with mass spectrometry; whole-cell lysate of Eca-109 cells immunoprecipitated with UBE3A antibody or IgG, then mass spectrometry.

Protein sequences, listed by entry. Tags and fused reporters are not part of them. Lines headed by an entry give the natural chain unless they say otherwise; changes in a name come on top.
UniProt Q05086: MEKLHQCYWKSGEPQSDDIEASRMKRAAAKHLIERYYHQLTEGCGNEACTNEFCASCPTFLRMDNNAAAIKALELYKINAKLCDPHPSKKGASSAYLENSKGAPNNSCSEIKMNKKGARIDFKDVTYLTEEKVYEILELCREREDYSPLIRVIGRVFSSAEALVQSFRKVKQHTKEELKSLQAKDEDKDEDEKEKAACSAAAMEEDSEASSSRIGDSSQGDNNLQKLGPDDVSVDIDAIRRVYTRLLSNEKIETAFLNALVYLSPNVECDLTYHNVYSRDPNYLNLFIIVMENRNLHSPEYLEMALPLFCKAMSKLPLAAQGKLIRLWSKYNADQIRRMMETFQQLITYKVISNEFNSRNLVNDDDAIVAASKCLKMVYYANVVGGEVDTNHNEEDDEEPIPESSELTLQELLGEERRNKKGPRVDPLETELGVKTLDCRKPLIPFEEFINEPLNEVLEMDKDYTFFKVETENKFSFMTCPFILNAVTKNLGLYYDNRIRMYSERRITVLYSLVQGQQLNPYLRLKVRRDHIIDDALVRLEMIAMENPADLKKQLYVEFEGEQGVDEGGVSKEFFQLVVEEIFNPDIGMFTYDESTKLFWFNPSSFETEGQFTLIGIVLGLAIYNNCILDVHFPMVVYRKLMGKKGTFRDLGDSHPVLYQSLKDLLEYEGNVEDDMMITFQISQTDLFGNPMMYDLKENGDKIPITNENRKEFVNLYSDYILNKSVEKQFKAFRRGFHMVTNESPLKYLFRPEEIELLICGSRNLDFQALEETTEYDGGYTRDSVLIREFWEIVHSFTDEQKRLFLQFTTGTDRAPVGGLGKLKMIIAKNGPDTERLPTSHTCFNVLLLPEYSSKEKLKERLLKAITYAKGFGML
UniProt O15231: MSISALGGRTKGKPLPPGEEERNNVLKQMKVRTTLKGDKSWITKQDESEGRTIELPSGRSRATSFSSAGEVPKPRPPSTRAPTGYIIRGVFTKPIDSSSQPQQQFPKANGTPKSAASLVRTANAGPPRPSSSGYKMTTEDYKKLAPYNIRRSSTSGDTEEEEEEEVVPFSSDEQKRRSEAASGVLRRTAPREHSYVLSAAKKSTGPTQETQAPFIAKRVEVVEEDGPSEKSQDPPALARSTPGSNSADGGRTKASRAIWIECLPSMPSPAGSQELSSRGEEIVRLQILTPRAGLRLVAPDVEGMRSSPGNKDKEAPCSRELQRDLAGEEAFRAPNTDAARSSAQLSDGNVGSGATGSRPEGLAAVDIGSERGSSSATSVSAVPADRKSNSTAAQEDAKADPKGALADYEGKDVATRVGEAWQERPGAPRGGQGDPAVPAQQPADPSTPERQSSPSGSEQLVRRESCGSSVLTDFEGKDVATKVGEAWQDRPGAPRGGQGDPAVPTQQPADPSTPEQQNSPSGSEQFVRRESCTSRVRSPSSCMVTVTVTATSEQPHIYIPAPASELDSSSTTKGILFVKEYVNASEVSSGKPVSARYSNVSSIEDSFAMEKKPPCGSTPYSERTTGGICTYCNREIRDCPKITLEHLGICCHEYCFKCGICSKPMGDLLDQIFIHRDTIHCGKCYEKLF

No constants are given. Whether binding was seen depends on the method and setting. In cells and extracts the contact can be indirect. These calls come from enrichment with a bait or labelling near it, and not all partners need be listed.

Drawing on PMC8375240, this text covers binding for one substance.

Take “Zinc finger protein 185 (from UniProt O15231 1-689)”: the binding result is “binds”.
